This passage reports binding results from publication PMC4376777 (PLoS Pathogens, 2015).

By UniProt entry, the sequences of proteins in these tests, tags left out. Where a name states a change or a piece, a line headed by the entry shows the natural chain unless it says otherwise. Residues count along the entry.
UniProt Q86WV6: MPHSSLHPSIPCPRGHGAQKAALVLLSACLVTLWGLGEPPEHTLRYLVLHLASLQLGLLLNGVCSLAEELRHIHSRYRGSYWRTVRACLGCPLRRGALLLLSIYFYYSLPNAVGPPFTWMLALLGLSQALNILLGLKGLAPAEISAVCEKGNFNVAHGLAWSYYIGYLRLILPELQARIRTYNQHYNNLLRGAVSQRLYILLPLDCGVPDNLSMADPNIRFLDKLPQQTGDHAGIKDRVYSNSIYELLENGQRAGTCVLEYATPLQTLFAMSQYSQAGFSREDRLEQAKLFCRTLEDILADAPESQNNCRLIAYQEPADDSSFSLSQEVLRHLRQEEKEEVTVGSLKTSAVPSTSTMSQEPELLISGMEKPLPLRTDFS
STING (amino acids 153–379), yeast two-hybrid bait: residues 153-379 of Q86WV6

No constants are given. Whether binding was seen depends on the method and setting. For part of these data: Binding seen in cells or lysates may run through a third protein. Some results given as binding are weak or reduced against the parent protein; the word gives no strength. For part of these data: Where a sequence is shown, tags or fusion partners need not be part of it.

In test [1] the target is T1, HA-tagged PPM1A (human) (UniProt P35813).
T1 sequence: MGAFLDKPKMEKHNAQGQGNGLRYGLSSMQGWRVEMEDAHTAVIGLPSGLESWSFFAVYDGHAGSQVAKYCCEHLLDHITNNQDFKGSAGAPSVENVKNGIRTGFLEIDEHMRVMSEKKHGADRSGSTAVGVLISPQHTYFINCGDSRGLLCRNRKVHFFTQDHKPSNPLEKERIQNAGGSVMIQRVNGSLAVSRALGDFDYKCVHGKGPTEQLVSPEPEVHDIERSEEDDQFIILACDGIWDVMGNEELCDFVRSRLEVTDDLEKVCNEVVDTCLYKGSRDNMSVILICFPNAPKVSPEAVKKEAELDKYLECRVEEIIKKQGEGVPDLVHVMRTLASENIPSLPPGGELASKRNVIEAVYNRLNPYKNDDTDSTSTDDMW
Description: co-IP; HEK293 cells transfected for 24 h; lysates immunoprecipitated with anti-Myc or anti-HA beads (for TBK1 as in B and C with Flag-TBK1 instead of STING-Myc); immunoblot. For orientation: In western blotting, separated proteins are transferred to a membrane and probed.

Test [2] deals with T2, IRF3 in mouse embryonic fibroblasts (mouse (endogenous in MEFs)), P70671.
T2 chain: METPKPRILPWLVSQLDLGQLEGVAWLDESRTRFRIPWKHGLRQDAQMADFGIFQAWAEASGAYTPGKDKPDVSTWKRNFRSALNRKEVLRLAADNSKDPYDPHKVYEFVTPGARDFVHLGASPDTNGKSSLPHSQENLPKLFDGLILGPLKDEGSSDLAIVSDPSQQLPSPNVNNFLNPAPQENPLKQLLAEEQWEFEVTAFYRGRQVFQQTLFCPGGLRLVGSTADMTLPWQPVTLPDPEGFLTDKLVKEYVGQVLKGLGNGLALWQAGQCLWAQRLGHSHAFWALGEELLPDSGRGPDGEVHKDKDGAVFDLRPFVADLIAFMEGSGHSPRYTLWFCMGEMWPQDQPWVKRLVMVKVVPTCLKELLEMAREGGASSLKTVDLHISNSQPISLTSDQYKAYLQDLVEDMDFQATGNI
In words: native gel or EMSA; lysates of primary Ppm1a+/+ and Ppm1a-/- MEFs, untreated or transfected with ISD (2 μg/ml) for 4 h, resolved by native gel electrophoresis; immunoblot. The settings on record: remark: other sources report otherwise.

Test [3] has as its target STING (amino acids 153–379), yeast two-hybrid bait (human) (UniProt Q86WV6). Description: two-hybrid; yeast cdc25H strain; STING (amino acids 153–379) as bait, human spleen library (Agilent).
Test [4] concerns the target T3, Flag-tagged TBK1 (human), Q9UHD2.
T3 chain: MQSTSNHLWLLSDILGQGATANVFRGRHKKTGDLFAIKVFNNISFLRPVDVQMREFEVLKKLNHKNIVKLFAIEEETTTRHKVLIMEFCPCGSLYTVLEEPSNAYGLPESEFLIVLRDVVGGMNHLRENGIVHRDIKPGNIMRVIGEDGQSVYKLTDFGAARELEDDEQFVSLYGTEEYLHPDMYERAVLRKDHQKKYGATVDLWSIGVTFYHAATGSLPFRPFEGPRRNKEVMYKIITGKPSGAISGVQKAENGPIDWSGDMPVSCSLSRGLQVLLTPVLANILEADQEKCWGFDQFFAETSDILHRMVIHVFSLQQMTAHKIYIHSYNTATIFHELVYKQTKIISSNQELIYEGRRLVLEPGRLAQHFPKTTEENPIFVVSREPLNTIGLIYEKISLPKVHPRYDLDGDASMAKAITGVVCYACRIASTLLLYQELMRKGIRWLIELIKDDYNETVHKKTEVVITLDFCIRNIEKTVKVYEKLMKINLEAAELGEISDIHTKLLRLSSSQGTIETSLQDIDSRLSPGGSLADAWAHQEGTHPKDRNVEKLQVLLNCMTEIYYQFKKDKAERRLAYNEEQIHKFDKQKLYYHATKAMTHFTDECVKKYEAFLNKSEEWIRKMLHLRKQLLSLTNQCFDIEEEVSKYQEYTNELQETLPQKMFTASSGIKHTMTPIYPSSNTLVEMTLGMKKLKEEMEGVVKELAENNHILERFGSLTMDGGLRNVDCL
In words: co-IP; HEK293 cells transfected for 24 h; lysates immunoprecipitated with anti-Myc or anti-HA beads (for TBK1 as in B and C with Flag-TBK1 instead of STING-Myc); immunoblot. The settings on record: remark: other sources report otherwise.

Test [5] addresses endogenous STING (THP-1 cells) (human (endogenous in THP-1)) (UniProt Q86WV6). In words: co-IP; […] immunoblot with anti-PPM1A.
Test [6] deals with STING-Myc (amino acids 1–379) (human) (UniProt Q86WV6). Description: co-IP; HEK293 cells transfected for 24 h; lysates immunoprecipitated with anti-Myc or anti-HA beads (for TBK1 as in B and C with Flag-TBK1 instead of STING-Myc); immunoblot.

In the case of “STING-Myc (amino acids 1–379) (from UniProt Q86WV6 1-379)”, the binding result in test [1] is recorded as “binds”.

B1: IRF3 in mouse embryonic fibroblasts, P70671 1-419 (protein)
chain: T2 chain
For B1, in test [2], the binding entry is on record as “binds”.

B2: PPM1A, full-length clone from the yeast two-hybrid library (enzyme, UniProt P35813-1 1-382)
chain: T1 sequence
As for B2, in test [3], the binding entry was “binds”.

B3: HA-tagged PPM1A, P35813-1 1-382 (enzyme)
chain: T1 sequence
Turning to B3, in test [4], the binding entry was “binds”.

B4: endogenous PPM1A (THP-1 cells) (enzyme, UniProt P35813 1-382)
chain: T1 sequence
As to B4, the binding result in test [5] is recorded as “binds”.

B5: HA-tagged PPM1A (enzyme, UniProt P35813-1 1-382)
chain: T1 sequence
As to B5, in test [6], the binding entry was “binds”.
